{"source": "paper PMC7297984", "key": {"[1]": {"target": "β1 integrin subunit (human (endogenous in HCT 116)) (UniProt P05556)", "assay": "co-IP; HCT 116 cells seeded on uncoated surfaces (no-adhesion control) for 90 min; total lysate (NP40 lysis buffer, 150 mM NaCl, Tris-HCl pH 8) immunoprecipitated, protein A/G agarose beads; blots with anti-KV11.1, anti-β1 integrin and anti-NHE1"}, "[2]": {"target": "β1 integrin subunit (human (endogenous in HCT 116)) (UniProt P05556)", "assay": "co-IP; HCT 116 cells before seeding or seeded on Col-I for 90 min; total lysate (NP40 lysis buffer, 150 mM NaCl, Tris-HCl pH 8) immunoprecipitated overnight with anti-β1 integrin (TS2/16) or anti-KV11.1 mAb, protein A/G agarose beads 2 h at 4°C; blots with anti-KV11.1, anti-β1 integrin and …"}, "[3]": {"target": "KV11.1 potassium channel (human (endogenous in HCT 116)) (UniProt Q12809)", "assay": "co-IP; HCT 116 cells before seeding or seeded on Col-I for 90 min; total lysate (NP40 lysis buffer, 150 mM NaCl, Tris-HCl pH 8) immunoprecipitated overnight with anti-β1 integrin (TS2/16) or anti-KV11.1 mAb, protein A/G agarose beads 2 h at 4°C; blots with anti-KV11.1, anti-β1 integrin and …"}, "[4]": {"target": "β1 integrin subunit (human (endogenous in HCT 116)) (UniProt P05556)", "assay": "condition: only cells seeded onto uncoated surfaces; co-IP; HCT 116 cells seeded on uncoated surfaces (no-adhesion control) for 90 min; total lysate (NP40 lysis buffer, 150 mM NaCl, Tris-HCl pH 8) immunoprecipitated, protein A/G agarose beads; blots with anti-KV11.1, anti-β1 integrin and anti-NHE1"}}, "note": "Results are given in words; binding and its absence hold for the method and conditions named. Binding seen in cells or lysates may run through a third protein. Some entries that bind do so weakly or less than the wild type.", "data": [{"substance": "KV11.1 potassium channel (from UniProt Q12809 1-1159)", "values": [{"measurement": "binding", "setting": "[1]", "value": "binds weakly"}, {"measurement": "binding", "setting": "[2]", "value": "binds"}]}, {"substance": "Na+/H+ antiporter NHE1 (from UniProt P19634 1-815)", "values": [{"measurement": "binding", "setting": "[3]", "value": "binds"}, {"measurement": "binding", "setting": "[2]", "value": "binds"}, {"measurement": "binding", "setting": "[4]", "value": "no binding"}]}]}
